The supplement of paper PMC10849652
The other results are listed elsewhere or left out.

Amino acid sequences for entries named in this document (tags omitted). A change or cut given only in a name is not applied to a line headed by its entry.
UniProt Q9P2M4: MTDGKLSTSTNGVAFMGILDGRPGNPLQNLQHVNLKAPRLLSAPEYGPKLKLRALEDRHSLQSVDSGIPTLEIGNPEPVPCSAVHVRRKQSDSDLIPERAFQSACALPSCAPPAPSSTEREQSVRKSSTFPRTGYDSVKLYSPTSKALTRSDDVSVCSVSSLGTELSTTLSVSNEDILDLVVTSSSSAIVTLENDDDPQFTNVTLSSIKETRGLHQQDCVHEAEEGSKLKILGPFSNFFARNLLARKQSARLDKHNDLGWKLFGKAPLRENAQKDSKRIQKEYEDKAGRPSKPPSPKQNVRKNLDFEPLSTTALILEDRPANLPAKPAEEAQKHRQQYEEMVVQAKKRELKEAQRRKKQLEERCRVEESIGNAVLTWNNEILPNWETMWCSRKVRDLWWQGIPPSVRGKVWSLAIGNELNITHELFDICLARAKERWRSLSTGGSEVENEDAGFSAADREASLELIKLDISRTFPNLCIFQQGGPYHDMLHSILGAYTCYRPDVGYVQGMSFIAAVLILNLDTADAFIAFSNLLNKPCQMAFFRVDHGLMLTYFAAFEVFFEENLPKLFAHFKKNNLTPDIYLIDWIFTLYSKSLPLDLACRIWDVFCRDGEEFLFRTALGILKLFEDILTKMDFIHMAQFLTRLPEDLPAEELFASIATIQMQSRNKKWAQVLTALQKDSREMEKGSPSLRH
UniProt Q9NU19: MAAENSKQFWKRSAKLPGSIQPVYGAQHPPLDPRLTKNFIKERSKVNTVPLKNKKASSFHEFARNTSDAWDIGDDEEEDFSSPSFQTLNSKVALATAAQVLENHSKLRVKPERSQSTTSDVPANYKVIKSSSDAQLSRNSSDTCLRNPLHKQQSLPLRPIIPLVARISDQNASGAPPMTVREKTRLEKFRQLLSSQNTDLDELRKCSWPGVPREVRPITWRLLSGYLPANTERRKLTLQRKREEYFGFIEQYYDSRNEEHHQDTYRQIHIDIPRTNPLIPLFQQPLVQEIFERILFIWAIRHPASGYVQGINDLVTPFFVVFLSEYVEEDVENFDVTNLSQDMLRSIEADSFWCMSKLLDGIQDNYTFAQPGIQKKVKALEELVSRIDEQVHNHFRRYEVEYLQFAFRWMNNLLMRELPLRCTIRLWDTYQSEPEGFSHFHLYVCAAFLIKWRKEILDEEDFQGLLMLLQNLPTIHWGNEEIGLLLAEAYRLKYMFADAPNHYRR
UniProt Q12800: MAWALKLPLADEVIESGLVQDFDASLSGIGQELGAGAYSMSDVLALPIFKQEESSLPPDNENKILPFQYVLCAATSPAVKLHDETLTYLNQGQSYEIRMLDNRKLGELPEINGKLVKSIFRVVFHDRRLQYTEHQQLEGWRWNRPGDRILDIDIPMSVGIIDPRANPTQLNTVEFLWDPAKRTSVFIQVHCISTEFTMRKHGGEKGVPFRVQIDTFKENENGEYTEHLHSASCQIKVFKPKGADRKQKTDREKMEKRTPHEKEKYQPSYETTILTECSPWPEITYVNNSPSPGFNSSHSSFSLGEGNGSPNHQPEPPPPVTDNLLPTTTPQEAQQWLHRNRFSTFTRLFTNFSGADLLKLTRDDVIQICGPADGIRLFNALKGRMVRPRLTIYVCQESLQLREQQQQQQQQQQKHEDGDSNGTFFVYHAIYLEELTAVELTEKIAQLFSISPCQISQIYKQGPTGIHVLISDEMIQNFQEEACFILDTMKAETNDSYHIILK
UniProt Q03167: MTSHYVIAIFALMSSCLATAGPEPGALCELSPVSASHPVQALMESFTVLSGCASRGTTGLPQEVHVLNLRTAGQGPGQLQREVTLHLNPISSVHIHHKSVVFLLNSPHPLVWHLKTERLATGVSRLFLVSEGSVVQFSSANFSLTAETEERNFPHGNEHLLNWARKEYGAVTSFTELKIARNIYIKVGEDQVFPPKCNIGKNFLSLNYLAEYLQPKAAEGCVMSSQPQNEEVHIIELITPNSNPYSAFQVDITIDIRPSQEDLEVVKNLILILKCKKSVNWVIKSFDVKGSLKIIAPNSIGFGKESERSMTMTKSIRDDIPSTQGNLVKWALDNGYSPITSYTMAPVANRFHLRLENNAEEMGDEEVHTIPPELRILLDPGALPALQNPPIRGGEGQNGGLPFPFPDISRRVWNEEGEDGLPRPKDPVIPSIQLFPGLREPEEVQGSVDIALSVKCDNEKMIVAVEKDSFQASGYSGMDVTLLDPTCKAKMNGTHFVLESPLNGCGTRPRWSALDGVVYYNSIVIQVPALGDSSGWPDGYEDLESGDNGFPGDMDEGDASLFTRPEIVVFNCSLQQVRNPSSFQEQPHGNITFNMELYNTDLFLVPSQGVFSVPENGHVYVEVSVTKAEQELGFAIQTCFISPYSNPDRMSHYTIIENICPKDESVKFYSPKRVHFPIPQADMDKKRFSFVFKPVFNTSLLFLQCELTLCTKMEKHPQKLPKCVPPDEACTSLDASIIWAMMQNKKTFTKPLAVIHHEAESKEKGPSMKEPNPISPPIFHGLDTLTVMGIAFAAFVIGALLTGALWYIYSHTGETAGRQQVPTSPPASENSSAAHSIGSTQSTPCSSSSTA
UniProt A6NFQ2: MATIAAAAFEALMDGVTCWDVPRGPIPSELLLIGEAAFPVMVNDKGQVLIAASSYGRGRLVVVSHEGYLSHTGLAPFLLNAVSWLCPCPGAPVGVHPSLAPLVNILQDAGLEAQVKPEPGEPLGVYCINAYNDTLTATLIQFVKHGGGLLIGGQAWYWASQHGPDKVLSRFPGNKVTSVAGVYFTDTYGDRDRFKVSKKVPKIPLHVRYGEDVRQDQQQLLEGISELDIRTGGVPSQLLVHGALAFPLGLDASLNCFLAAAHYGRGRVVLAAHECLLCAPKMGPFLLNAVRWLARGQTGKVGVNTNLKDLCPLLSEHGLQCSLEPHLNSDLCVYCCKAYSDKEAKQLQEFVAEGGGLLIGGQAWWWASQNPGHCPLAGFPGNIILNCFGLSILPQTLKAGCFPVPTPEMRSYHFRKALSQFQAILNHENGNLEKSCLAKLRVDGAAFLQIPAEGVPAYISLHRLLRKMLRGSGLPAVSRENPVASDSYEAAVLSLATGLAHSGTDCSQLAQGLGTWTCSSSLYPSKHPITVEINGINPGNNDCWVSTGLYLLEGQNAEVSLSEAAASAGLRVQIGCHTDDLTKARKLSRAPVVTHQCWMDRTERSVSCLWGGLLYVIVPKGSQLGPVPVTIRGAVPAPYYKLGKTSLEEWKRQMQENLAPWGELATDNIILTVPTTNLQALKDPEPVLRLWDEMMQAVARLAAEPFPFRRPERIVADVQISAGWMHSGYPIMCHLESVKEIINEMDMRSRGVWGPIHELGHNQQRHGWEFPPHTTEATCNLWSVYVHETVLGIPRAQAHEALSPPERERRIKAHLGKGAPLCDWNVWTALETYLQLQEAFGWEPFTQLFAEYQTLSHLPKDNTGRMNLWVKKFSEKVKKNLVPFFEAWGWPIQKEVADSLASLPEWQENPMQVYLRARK
UniProt Q9H5L6: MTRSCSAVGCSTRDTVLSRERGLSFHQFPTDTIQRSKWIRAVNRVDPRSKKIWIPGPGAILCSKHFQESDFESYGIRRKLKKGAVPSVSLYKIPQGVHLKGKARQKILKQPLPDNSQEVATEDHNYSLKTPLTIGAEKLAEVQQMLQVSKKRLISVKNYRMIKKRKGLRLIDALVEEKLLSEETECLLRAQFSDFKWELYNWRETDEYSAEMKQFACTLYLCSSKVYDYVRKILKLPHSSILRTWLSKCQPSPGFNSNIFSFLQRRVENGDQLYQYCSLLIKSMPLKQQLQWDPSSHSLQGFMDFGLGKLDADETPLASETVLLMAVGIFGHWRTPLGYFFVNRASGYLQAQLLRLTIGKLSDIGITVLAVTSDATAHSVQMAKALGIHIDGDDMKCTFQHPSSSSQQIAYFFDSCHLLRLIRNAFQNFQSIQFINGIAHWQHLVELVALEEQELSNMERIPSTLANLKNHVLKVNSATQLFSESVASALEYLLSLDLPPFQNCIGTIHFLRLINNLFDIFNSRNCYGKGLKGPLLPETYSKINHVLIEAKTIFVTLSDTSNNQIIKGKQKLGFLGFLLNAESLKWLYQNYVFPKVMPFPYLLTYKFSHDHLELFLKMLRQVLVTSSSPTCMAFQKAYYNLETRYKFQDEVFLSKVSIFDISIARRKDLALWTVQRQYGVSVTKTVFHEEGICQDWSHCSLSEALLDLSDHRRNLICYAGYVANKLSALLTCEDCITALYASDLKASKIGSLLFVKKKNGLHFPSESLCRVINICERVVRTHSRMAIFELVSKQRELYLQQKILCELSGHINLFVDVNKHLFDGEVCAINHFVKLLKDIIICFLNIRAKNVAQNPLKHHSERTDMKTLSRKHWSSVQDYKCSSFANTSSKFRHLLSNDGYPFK
UniProt Q14186: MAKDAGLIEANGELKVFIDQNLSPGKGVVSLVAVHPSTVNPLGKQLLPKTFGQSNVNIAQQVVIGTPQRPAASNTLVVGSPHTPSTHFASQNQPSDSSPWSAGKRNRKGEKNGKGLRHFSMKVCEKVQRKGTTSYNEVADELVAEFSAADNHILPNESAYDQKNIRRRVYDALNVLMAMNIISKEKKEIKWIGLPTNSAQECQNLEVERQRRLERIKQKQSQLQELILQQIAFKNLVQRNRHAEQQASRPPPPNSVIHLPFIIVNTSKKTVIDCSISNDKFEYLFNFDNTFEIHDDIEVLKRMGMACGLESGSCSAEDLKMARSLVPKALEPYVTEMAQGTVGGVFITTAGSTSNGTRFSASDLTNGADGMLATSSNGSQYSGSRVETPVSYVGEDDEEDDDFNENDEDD
UniProt Q8NHU6: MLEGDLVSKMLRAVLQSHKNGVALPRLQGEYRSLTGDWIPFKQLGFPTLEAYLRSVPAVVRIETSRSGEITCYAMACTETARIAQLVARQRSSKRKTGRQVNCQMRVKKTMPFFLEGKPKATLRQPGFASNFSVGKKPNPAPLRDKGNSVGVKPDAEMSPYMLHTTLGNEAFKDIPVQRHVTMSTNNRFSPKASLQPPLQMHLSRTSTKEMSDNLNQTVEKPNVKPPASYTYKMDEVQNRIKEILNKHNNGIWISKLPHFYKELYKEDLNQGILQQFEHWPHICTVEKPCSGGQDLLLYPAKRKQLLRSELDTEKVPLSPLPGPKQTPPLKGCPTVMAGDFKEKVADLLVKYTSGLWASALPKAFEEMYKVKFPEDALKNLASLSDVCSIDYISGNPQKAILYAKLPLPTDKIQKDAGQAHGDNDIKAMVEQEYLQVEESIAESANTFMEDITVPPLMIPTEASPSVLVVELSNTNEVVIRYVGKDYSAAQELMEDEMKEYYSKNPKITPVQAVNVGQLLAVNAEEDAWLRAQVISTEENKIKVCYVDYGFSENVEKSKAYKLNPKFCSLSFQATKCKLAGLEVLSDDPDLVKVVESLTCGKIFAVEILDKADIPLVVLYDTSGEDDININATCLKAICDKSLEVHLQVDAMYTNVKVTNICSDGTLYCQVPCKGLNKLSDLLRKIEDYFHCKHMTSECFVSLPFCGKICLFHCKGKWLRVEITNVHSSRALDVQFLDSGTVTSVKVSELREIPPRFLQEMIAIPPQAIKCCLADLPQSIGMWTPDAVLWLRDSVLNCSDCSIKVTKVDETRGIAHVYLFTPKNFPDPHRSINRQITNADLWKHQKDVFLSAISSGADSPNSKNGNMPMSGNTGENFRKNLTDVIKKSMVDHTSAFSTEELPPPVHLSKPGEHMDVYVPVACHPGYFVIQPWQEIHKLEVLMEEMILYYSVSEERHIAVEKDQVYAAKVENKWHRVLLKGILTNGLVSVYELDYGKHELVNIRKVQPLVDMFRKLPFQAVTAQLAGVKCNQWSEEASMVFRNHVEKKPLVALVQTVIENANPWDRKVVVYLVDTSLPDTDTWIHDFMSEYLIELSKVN
UniProt Q9H7E2: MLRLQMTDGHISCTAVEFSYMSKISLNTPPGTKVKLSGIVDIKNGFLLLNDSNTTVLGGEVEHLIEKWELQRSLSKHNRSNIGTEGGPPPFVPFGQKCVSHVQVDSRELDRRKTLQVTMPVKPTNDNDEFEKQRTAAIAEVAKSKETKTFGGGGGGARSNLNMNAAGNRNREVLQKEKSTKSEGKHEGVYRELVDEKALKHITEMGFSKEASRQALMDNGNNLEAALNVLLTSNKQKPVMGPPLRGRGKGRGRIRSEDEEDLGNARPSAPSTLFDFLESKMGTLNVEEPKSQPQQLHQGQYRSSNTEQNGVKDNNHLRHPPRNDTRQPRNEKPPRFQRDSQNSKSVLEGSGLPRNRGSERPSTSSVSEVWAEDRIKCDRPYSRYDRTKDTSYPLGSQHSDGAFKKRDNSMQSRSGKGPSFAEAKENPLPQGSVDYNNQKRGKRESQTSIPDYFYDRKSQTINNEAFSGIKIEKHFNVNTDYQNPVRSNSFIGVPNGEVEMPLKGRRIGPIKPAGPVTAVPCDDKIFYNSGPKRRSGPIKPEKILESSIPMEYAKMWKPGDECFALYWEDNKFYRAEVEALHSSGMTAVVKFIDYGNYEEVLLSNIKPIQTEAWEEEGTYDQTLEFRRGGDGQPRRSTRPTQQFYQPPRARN

Assays:
Experiment in all cases: log2 fold change, soluble protein after heating vs DMSO (PISA); higher = thermal stabilisation; K562 cells, 10 uM, 30 min; active = over 0.2 and 3.5 SD of the protein, either way, in both replicates (recomputed)
[1] = compound: CC1=C2C(=CC=C1)N=C(N(C2=O)C3=CC=CC=C3C)CN4C=NC5=C(N=CN=C54)N
Method in brief: (§1)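 For each measurement, 10 μM compound was applied for 30 min to K562 cells at 2×10^6 cells/mL. Aliquots were heated for 3 min across 48°C-58°C, pooled, and extracted in PBS with 0.5% NP-40 at 4°C; the supernatant after 21,000xg for 90 min was soluble protein. This was quantified by TMTpro 16plex LC-MS/MS with channel sums equalised, and thermal stability was reported relative to control samples from duplicates, on a log2 fold-change scale.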

[2] = compound: Cc1sc2c(c1C)C(c1ccc(Cl)cc1)=N[C@@H](CC(=O)OC(C)(C)C)c1nnc(C)n1-2
Method in brief: as §1

[3] = compound: CC1=C(SC2=C1C(=N[C@H](C3=NN=C(N32)C)CC(=O)N)C4=CC=C(C=C4)Cl)C
Method in brief: as §1

[4] = compound: c1ccc([C@@H]2C[C@H]2NC2CCNCC2)cc1
Method in brief: as §1

[5] = compound: C1=CC=C(C=C1)[C@H](COC2=CC3=C(C=C2)NC(=O)N3)NC(=O)C4=CC=CN(C4=O)CC5=CC(=C(C=C5)F)F
Method in brief: as §1

Row | Target | log2 fold change [1] | log2 fold change [2] | log2 fold change [3] | log2 fold change [4] | log2 fold change [5]
1 | TC2N (UniProt Q8N9U0) | inactive: 0.053 | inactive: 0.08 | – | – | –
2 | TBC1D14 (UniProt Q9P2M4) | inactive: -0.105 | inactive: -0.064 | – | – | –
3 | TENM4 (UniProt Q6N022) | – | – | inactive: 0.05 | inactive: -0.078 | –
4 | TBC1D20 isoform 3 (UniProt Q96BZ9) | inactive: -0.021 | – | inactive: 0.069 | active: -0.403 | inactive: 0.017
5 | TBC1D22B (UniProt Q9NU19) | inactive: 0.162 | inactive: -0.028 | inactive: 0.001 | inactive: -0.017 | inactive: -0.075
6 | TLCD3A (UniProt Q8TBR7) | inactive: 0 | inactive: -0.066 | – | – | –
7 | TFCP2 (UniProt Q12800) | – | – | inactive: -0.061 | inactive: -0.008 | inactive: 0.026
8 | TBC1D25 (UniProt Q3MII6) | inactive: 0.125 | – | inactive: 0.14 | inactive: -0.058 | inactive: -0.043
9 | TGFBR3 (UniProt Q03167) | inactive: -0.041 | inactive: -0.006 | inactive: -0.007 | inactive: 0.025 | inactive: -0.048
10 | TCEAL1 isoform 2 (UniProt Q15170) | inactive: -0.141 | inactive: 0.054 | inactive: 0.026 | inactive: 0.056 | –
11 | TCAF2 (UniProt A6NFQ2) | – | – | inactive: -0.344 | inactive: -0.123 | –
12 | TGM2 (UniProt A2A299) | inactive: 0.16 | inactive: 0.247 | inactive: -0.004 | inactive: -0.014 | –
13 | TFE3 (UniProt P19532) | – | inactive: 0.053 | – | – | inactive: -0.172
14 | TDRD15 (UniProt B5MCY1) | inactive: 0.169 | inactive: 0.182 | inactive: -0.022 | inactive: 0.079 | –
15 | TBCK (UniProt Q8TEA7) | – | inactive: 0.05 | – | – | –
16 | TBPL1 (UniProt P62380) | inactive: 0.059 | inactive: -0.049 | inactive: 0.121 | inactive: -0.07 | inactive: -0.007
17 | TET2 (UniProt Q6N021) | – | inactive: 0.01 | – | – | –

Row | Target | log2 fold change [1] | log2 fold change [2] | log2 fold change [3] | log2 fold change [4] | log2 fold change [5]
18 | TBC1D9 (UniProt Q6ZT07) | inactive: 0.088 | – | – | – | inactive: 0.171
19 | TCIRG1 (UniProt Q13488) | – | inactive: -0.241 | inactive: -0.241 | inactive: -0.167 | inactive: 0.063
20 | TGDS (UniProt O95455) | inactive: -0.001 | inactive: -0.032 | inactive: -0.205 | inactive: 0.109 | –
21 | TIFA (UniProt Q96CG3) | inactive: 0.173 | – | inactive: -0.042 | inactive: 0.101 | –
22 | TDP1 (UniProt Q9NUW8) | – | – | inactive: 0.068 | inactive: 0.054 | –
23 | THAP12 (UniProt O43422) | – | – | inactive: 0.438 | inactive: 0.152 | –
24 | THAP9 (UniProt Q9H5L6) | – | – | inactive: 0.167 | inactive: -0.046 | inactive: 0.093
25 | TCF25 (UniProt Q9BQ70) | inactive: 0.204 | inactive: -0.028 | inactive: 0.046 | inactive: 0.011 | –
26 | TBC1D24 (UniProt Q9ULP9) | inactive: 0.02 | inactive: -0.029 | inactive: 0.152 | inactive: -0.061 | inactive: -0.108
27 | TCF3 isoform 2 (UniProt P15923) | inactive: 0.106 | inactive: -0.152 | inactive: 0.012 | inactive: -0.158 | –
28 | TFDP1 (UniProt Q14186) | inactive: 0.004 | inactive: -0.088 | – | – | inactive: 0.006
29 | TCF4 isoform 3 (UniProt P15884) | – | inactive: -0.18 | inactive: -0.005 | inactive: -0.242 | –
30 | TCEAL4 isoform 2 (UniProt Q96EI5) | inactive: -0.001 | inactive: 0.081 | – | – | –
31 | TDRD7 (UniProt Q8NHU6) | inactive: 0.051 | – | inactive: 0.048 | inactive: 0.023 | –
32 | TDRD3 isoform 3 (UniProt Q9H7E2) | inactive: -0.02 | – | – | – | inactive: 0.099
33 | TCF20 (UniProt Q9UGU0) | – | – | inactive: 0.126 | inactive: 0.236 | inactive: -0.008
34 | TFIP11 (UniProt Q9UBB9) | – | – | inactive: -0.356 | inactive: 0.043 | –

A different layout for some results above:
Row	Target	log2 fold change [1]	log2 fold change [2]	log2 fold change [3]	log2 fold change [4]	log2 fold change [5]
21	TIFA (UniProt Q96CG3)	inactive: 0.173	–	inactive: -0.042	inactive: 0.101	–
22	TDP1 (UniProt Q9NUW8)	–	–	inactive: 0.068	inactive: 0.054	–
